# Experimental data published in PubChem BioAssay AID493014 (National Center for Advancing Translational Sciences (NCATS), 2011).
# About 170 (0.05%) of roughly 340,000 compounds were called active. Inconclusive means that the source gave no clear call. Such entries were picked first, then a sample of the others. The call rests on the fitted dose curve; in most records, active means well fitted inhibition curve with a large enough effect in the signal ratio, with a control signal flat (not every such curve was filed as active); inconclusive means small, poorly fitted or top-dose-only effect, or effect the other way, or a change in a side signal; inactive means flat fitted curve, though single readings scatter; the % refers to the signal ratio. A potency beside an inconclusive call is a rough fit, not a confirmed value.
# Experiment: qHTS Assay to Find Inhibitors of Chronic Active B-Cell Receptor Signaling;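 on activity change, negative = inhibition: plate controls were basal doxycycline-induced cells for no effect and cells given 10 µM MG132 for full effect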
# Conditions: ABC-DLBCL IkBa-CBG/CBR reporter, luminescence ratio (green luciferase fused to IkBa over red control in TMD8 lymphoma cells), 4 h; activity change, negative = inhibition: at 46.1 µM (top of the series)
# Summary of the method: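 Cell line TMD8 (human ABC DLBCL), stably expressing tet-inducible CBG68-IkBa fusion and CBR; IMDM/0.5% FBS; cpd up to 46 uM; dox induction, 4 h, 37C/5% CO2; dual luminescence; green/red ratio; MG132 control.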
# Potency means the concentration at half of the fitted maximal effect.
Compound,"activity change, negative = inhibition",Potency
Cc1ccc2nc(N/N=C\c3ccc([N+](=O)[O-])o3)nc(-c3ccccc3)c2c1,inconclusive: 21.5%,–
CCN1C(=O)c2cccc3c(S(=O)(=O)N4CCNCC4)ccc1c23,inactive: 0.96%,–
COc1cc(/C=N/n2cnnc2)ccc1OC(=O)c1cccnc1,inconclusive: -6.83%,–
CC(C)(CO)Cc1cc(C(C)(C)C)c(O)c(C(C)(C)C)c1,inconclusive: 1.31%,–
CSc1ccccc1NC(=S)NC1CCCC1,inconclusive: 0.164%,–
C=CCn1c(=O)c2c3c(sc2n2c(Nc4ccc(OC)cc4)nnc12)CCCC3,inconclusive: 9.66%,–
CN(C)c1ccc(-c2nnc(-c3cccnc3)o2)cc1,–,"inconclusive: 31.6 µM [rising, single point]"
Cc1ccccc1C(=O)O/N=C(\c1ccccc1)c1ccccn1,inactive: -18.2%,–
COc1ccc(Nc2ncnc3c2c(C)c(C)n3CCO)cc1,inactive: -0.934%,–
CCOC(=O)c1ccc(S(=O)(=O)N2CCC(C(=O)NCC3CCCCC3)CC2)cc1,inactive: 2.65%,–
O=C1CC(N2CCN(c3ccccc3)CC2)C(=O)N1c1ccc2c(c1)OCO2 (configuration not stated),inconclusive: 8.03%,–
O=C(c1cccc(C(F)(F)F)c1)C1CCCN(C(=O)/C=C/c2cnc[nH]2)C1 (configuration not stated),inactive: -1.02%,–
Cc1nc(/C(N)=N/OC(=O)c2ccc(Cl)cc2)c(C(F)(F)F)o1,inconclusive: -18.8%,–
O=C(CSc1nc(=O)n2ccccc2n1)Nc1cccc2ccccc12,–,"inconclusive: 13 µM [falling, partial curve, poor fit]"
COc1ccccc1CNCc1cc(=O)oc2c(C)c(C)ccc12,inconclusive: 0.658%,–
CCCn1c(=S)[nH]c2cc(C(=O)N(CCO)Cc3ccccc3)ccc2c1=O,inconclusive: 9.61%,–
O=C(CN1CCC(n2nnc3cc(F)ccc32)CC1)Nc1ccccc1N1CCOCC1,inactive: 3.51%,–
O=C(N1CCOCC1)C1(c2ccccc2)CCCCC1,inconclusive: 2.57%,–
CC(C)Cc1nnc(NC(=O)c2cc(-c3ccncc3)nc3ccccc23)s1,inconclusive: 13.6%,–
O=C1C=C(Nc2ccc(Cl)cc2)CC(c2ccc(Cl)cc2)C1 (configuration not stated),inactive: -3.98%,–
C#CCN(C)CCCOc1ccc(Cl)cc1Cl,inconclusive: 15%,–

Compound,"activity change, negative = inhibition",Potency
Cc1cc(C)n(-c2ccc(C(=O)OCC(=O)N(CC(C)C)C3CCS(=O)(=O)C3)cc2)n1 (configuration not stated),inconclusive: -19.1%,–
CCCC(=O)Nc1ccc(Cl)c(NC(=S)NC(=O)c2ccco2)c1,inconclusive: 24.1%,–
C=CCn1c(-c2ccc(Cl)cc2)c[nH]c1=S,–,"inconclusive: 31.6 µM [cytotoxic, single point]"
Cc1onc(-c2c(F)cccc2Cl)c1C(=O)Nc1cccc(S(=O)(=O)NC2=NCCC2)c1,inconclusive: -3.6%,–
CCOc1ccc2nc(SCC(=O)c3ccc(Cl)s3)sc2c1,–,"inconclusive: 32.6 µM [rising, single point]"
Cn1c(=O)c2c(nc(Sc3ncccn3)n2Cc2ccc(Cl)cc2)n(C)c1=O,inconclusive: 14.3%,–
Cc1ccnc2nc(C(=O)OCC(=O)N(Cc3ccccc3)C(C)(C)C)nn12,inactive: -1.11%,–
Cc1cccc(-n2nnnc2SCC(=O)NC2CCCC2)c1,inconclusive: -0.623%,–
COc1cc(C(=O)Nc2ccc(NC(=O)C3CC3)nc2)cc(OC)c1OC,inconclusive: 1.22%,–
COCCN1CC(O)=C(c2nc3ccccc3c(=O)[nH]2)C1=N,inconclusive: 10.2%,–
CC(CC(=O)N1CCN(c2ccccc2F)CC1)c1ccccc1 (configuration not stated),inconclusive: 5.03%,–
Cc1cs/c(=N\N=C\c2cccc([N+](=O)[O-])c2)n1Cc1ccco1,inconclusive: 6.76%,–
Cc1nnc(SCc2nc3sc(C(=O)O)c(C)c3c(=O)[nH]2)s1,–,"inconclusive: 31.6 µM [rising, single point]"
CC(N=Cc1c(O)c2ccccc2oc1=O)C(=O)O (configuration not stated),–,"inconclusive: 12.6 µM [falling, partial curve]"
CCOC(=O)c1[nH]c(C)c(C(=O)OC(C)C(=O)Nc2ncc(Cl)cc2Cl)c1C (configuration not stated),inconclusive: -3.22%,–
CCCOC(=O)c1c(NC(=O)CCC(=O)O)sc2c1CCCCC2,inconclusive: 6.33%,–
Cc1cc(-c2nn(-c3ccccc3F)cc2CNCCc2cnc[nH]2)c(C)s1,inconclusive: -6.75%,–
O=C(CN1C(=O)NC2(CCCCC2)C1=O)N1CCOCC1,inconclusive: 0.105%,–
Cc1ccc(N(CC(=O)N2CCOCC2)S(=O)(=O)c2ccccc2)cc1,inactive: 1.54%,–
COc1ccc2cc3c(N)c(C(=O)N4CCCC4)sc3nc2c1,–,"inconclusive: 3.26 µM [falling, partial curve, poor fit]"
CC(=O)c1ccc(Nc2c([N+](=O)[O-])ccc3nonc23)cc1,inactive: 3.68%,–

Compound,"activity change, negative = inhibition",Potency
CCCCN(C(=O)CCC(=O)Nc1cc(C)on1)C(C(=O)NC1CCCC1)c1ccccc1C (configuration not stated),inactive: 5.34%,–
O=C(Nc1nc(-c2ccncc2)cs1)C1COc2ccccc2O1 (configuration not stated),inconclusive: -0.575%,–
Cc1c(C)c(C)c(S(=O)(=O)N2CCNCC2)c(C)c1C,inactive: -11.3%,–
Cc1ccccc1NC(=O)NC1CCS(=O)(=O)C1 (configuration not stated),inconclusive: 3.14%,–
CNC(=S)N1N=C(c2ccccc2)CC1c1ccc(Br)cc1 (configuration not stated),inconclusive: 8.64%,–
COc1cc2ccccc2cc1C(=O)Nc1ccc(N2CCN(C)CC2)cc1,inactive: 11.5%,–
CCCCN(CC)CCCNC(=O)c1ccc2c(c1)N(Cc1ccc(C)cc1)C(=O)c1ccccc1S2,inconclusive: -19.6%,–
CCCCCCCN1C/C=C\C(c2ccc(OC)cc2)N(Cc2ccc(F)cc2)C(=O)[C@H]1Cc1ccccc1 (some centres not stated),inconclusive: -0.0991%,–
O=C(COC(=O)/C=C/c1ccccc1[N+](=O)[O-])Nc1ccc(OCc2ccccc2)cc1,inconclusive: 3.01%,–
O=S(=O)(NCCc1csc(-c2cccnc2)n1)c1ccc(Cl)s1,–,"inconclusive: 6.51 µM [rising, single point]"
COc1ccc(CCNC(=O)C2CCN(S(=O)(=O)N3CCC4(CC3)OCCO4)CC2)cc1OC,inconclusive: 0.246%,–
O=C(N/N=C/c1ccc[nH]1)c1ccc([N+](=O)[O-])cc1,inconclusive: -3.84%,–
O=C(O)CN1C(=O)/C(=C\c2cc([N+](=O)[O-])ccc2OCc2ccccc2Cl)SC1=S,inactive: 9.3%,–
CCc1ccc(N(CC(=O)Nc2nc3ccc(C)cc3s2)S(=O)(=O)c2c(C)noc2C)cc1,–,"inconclusive: 14.6 µM [rising, partial curve, poor fit]"
O=C1N/C(=C/c2cccs2)C(=O)N1Cc1ccc(F)cc1,inconclusive: 13.3%,–
COc1ccc(S(=O)(=O)N2CCCCCC2)cc1C(=O)N(C)CCOc1ccc(Cl)cc1,inactive: 1.84%,–
COc1cccc(NC(=O)COc2ccc(Br)c(C)c2)c1,–,"inconclusive: 22.4 µM [falling, single point]"
CCc1nnc(NC(=O)CSc2nnc(-c3ccccc3O)n2CC)s1,inconclusive: 4.48%,–
O=C(O)c1cc(O)ccc1N=Nc1ccccc1,inconclusive: -4.04%,–
O=C(CCCN1C(=O)/C(=C\c2ccco2)SC1=S)Nc1ccc2ccccc2c1,–,"inconclusive: 14.6 µM [falling, partial curve, poor fit]"
N/C(Cc1cccs1)=N\OC(=O)COc1ccc(Br)cc1,–,"inconclusive: 0.231 µM [rising, full curve, poor fit]"

# 5 of the compounds above, bar-delimited:
Compound | activity change, negative = inhibition | Potency
CCCCN(CC)CCCNC(=O)c1ccc2c(c1)N(Cc1ccc(C)cc1)C(=O)c1ccccc1S2 | inconclusive: -19.6% | –
COc1ccc(CCNC(=O)C2CCN(S(=O)(=O)N3CCC4(CC3)OCCO4)CC2)cc1OC | inconclusive: 0.246% | –
O=C(O)CN1C(=O)/C(=C\c2cc([N+](=O)[O-])ccc2OCc2ccccc2Cl)SC1=S | inactive: 9.3% | –
COc1ccc(S(=O)(=O)N2CCCCCC2)cc1C(=O)N(C)CCOc1ccc(Cl)cc1 | inactive: 1.84% | –
CCc1nnc(NC(=O)CSc2nnc(-c3ccccc3O)n2CC)s1 | inconclusive: 4.48% | –

# (further entries)

Compound,"activity change, negative = inhibition",Potency
O=C(O)CC(NC(=O)C(c1ccccc1)c1ccccc1)c1ccco1 (configuration not stated),inconclusive: -1.89%,–
O=C(NCC1COc2ccccc2O1)c1ccc(NC(=O)C2CCCO2)cc1 (configuration not stated),inconclusive: -4.23%,–
Cc1ccc(C(=O)NNC(=O)c2ccncc2)cc1C,–,"inconclusive: 28.2 µM [falling, partial curve, poor fit]"
COc1ccc(-c2nnn(CC(=O)N(Cc3ccco3)C(C(=O)NCC3CCCO3)c3ccco3)n2)cc1 (configuration not stated),inconclusive: 2.1%,–
O=C(Nc1ccc(N2CCN(C(=O)c3ccc(Cl)cc3)CC2)cc1)c1ccc([N+](=O)[O-])o1,–,"inconclusive: 3.55 µM [cytotoxic, single point]"
COc1nc(N2CCOCC2)nc(C)c1[N+](=O)[O-],inconclusive: 2.26%,–
O=C(Cn1c(=O)n(Cc2ccco2)c(=O)c2ccccc21)NCC1CCCO1 (configuration not stated),inconclusive: 7.28%,–
CC(C)N(Cc1nc(-c2ccccc2)no1)C(=O)C(Cl)(Cl)Cl,inactive: -7.05%,–
O=C(c1ccc(Cl)c(NC2=NC3CS(=O)(=O)CC3S2)c1)N1CCN(c2ccc(F)cc2)CC1 (configuration not stated),inactive: -11.1%,–
COc1cccc(CN2C(=O)N(C(C)C)C(N(O)C(=O)NC(C)C)C2(C)C)c1OC (configuration not stated),–,"inconclusive: 0.562 µM [falling, full curve, poor fit]"
COc1ccc(NS(=O)(=O)c2cccc(C(=O)NNC(=O)CNC(=O)c3ccccc3F)c2)cc1,inconclusive: 10%,–
CN1CCC(NC(=O)c2cc(-c3cccc(Br)c3)nc3ccccc23)CC1,inactive: 8.59%,–
Cc1cc(-n2c(C)cc(C(=O)CN3C(=O)NC4(CCCCC4C)C3=O)c2C)no1 (configuration not stated),inconclusive: -10.5%,–
COCCOC(=O)C1=C(C)NC2=C(C(=O)CC(C)(C)C2)C1c1cc2c(cc1Br)OCO2 (configuration not stated),inactive: -0.264%,–
CNc1nnc(-c2ccc(C)cc2)c2ccccc12,inconclusive: -3.07%,–
Cc1ccc(NC(=O)C/C(N)=N/OC(=O)Nc2ccc(C)c(Cl)c2)cc1,inconclusive: 3.4%,–
Cc1nc2cc3ccccc3cc2c(=O)[nH]1,–,"inconclusive: 3.55 µM [falling, partial curve]"
CCCOc1c(Cl)cc(/C=N/O)cc1OCC,–,"inconclusive: 11.6 µM [falling, partial curve]"
CCOC(=O)C1(Cc2cccc(OC)c2)CCN(C(C)CC(C)(C)O)CC1 (configuration not stated),inconclusive: 7.91%,–
